# In PubChem BioAssay AID651640 (Broad Institute, 2012):
# Several values for one entry are separate records, joined by “and”; a condition that tells them apart may be missing. Equal entries are not always repeated. The campaign covered roughly 350,000 compounds. About 6,000 (1.7%) were called active. The shares of active, inactive and inconclusive entries below differ from those in the screen. No stated cut-off is given here; in the data, active means CPE inhibition above about 20% (passing the limit was not always enough); inconclusive means no clear call, values can overlap the other calls; tested in BHK-21 cells.
# Assay: protection of cells from dengue 2 killing – plate reader, single concentration, primary screen (AID 651640);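 further: 0% = median of neutral control wells and 100% = median of positive control wells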
# Settings: DENV2-infected cells, cytopathic effect rescue, at 9.99 µM, stronger effect = higher value
row,SMILES,CPE inhibition
1,COc1ccc(-c2oc3cc(O)c(OC)c(O)c3c(=O)c2OC)cc1,inactive: -1.64%
2,COc1ccc(C(=O)N2CCOC2CNC(=O)C(=O)NCCc2ccccc2OC)cc1 (stereo unspecified),inconclusive: 53.6%
3,COc1ccc(CNC(=O)CN(C(=O)c2snc(C(N)=O)c2N)c2ccc(F)cc2)cc1,inconclusive: 31.1%
4,C[C@@H]1CN([C@H](C)CO)C(=O)c2cc(NS(=O)(=O)c3ccc(F)cc3)ccc2O[C@@H]1CN(C)Cc1ccc(C(=O)Nc2ccccc2N)cc1,inconclusive: 29.4%
5,COc1ccccc1Cn1c(C)nnc1-c1cnn(C)c1N,inconclusive: 30.4%
6,Cc1ccc(S(=O)(=O)Nc2ccc3c(c2)C(=O)N([C@H](C)CO)C[C@H](C)[C@@H](CN(C)S(=O)(=O)c2ccccc2)O3)cc1,active: 38.7%
7,CCC(=O)N(C)C[C@H]1Oc2ncc(-c3ccccc3OC)cc2C(=O)N([C@@H](C)CO)C[C@@H]1C,inconclusive: 20.3%
8,COC(=O)C1=C(C)N(Cc2ccccc2C(F)(F)F)C(=NCC2CC2)NC1CCc1ccccc1 (stereo unspecified),inconclusive: 25.3%
9,Cc1cccc(/C=N/NC(=O)c2cc(C)nc3ccccc23)n1,inactive: 10.3%
10,CCOC(=O)C1=CCN(S(=O)(=O)c2ccc(C)cc2)C1c1cccc(Cl)c1 (stereo unspecified),inconclusive: 32%
11,C/C=C/c1ccc([C@H]2[C@@H](CO)N(CC3CCCC3)C23CN(S(=O)(=O)CC)C3)cc1,active: 23.1%
12,O=C(c1ccncc1)N1CCCC(N2CCN(c3ccc(F)cc3)CC2)C1 (stereo unspecified),inconclusive: 62%
13,Cc1cc(Br)cn2c(Cc3cccc(F)c3)c(-c3ccc(C#N)cc3)nc12,inactive: 1.13%
14,C[C@@H]1CCCCO[C@H](CN(C)C(=O)Nc2cccc3ccccc23)[C@@H](C)CN([C@@H](C)CO)C(=O)c2cc(NC(=O)C3CCCCC3)ccc2O1,inactive: -2.11%
15,C[C@H](CO)N1C[C@H](C)[C@H](CN(C)C)Oc2ccc(NC(=O)Nc3cccc4ccccc34)cc2CC1=O,active: 35.3%
16,C[C@H]1CN([C@@H](C)CO)S(=O)(=O)c2ccc(Br)cc2O[C@H]1CN(C)C,inconclusive: 29.3%
17,C[C@H](CO)N1C[C@H](C)[C@@H](CN(C)C(=O)Nc2ccccc2)Oc2c(cccc2N(C)C)C1=O,inactive: 2.83% and inactive: 1.93%
18,COCC(=O)N(C)C[C@H]1Oc2cc(-c3ccc(C)cc3)ccc2S(=O)(=O)N([C@H](C)CO)C[C@@H]1C,inactive: 5.04%
19,C[C@@H]1CN([C@@H](C)CO)C(=O)c2cc(C3=CCCCC3)cnc2O[C@H]1CN(C)S(=O)(=O)c1cn(C)cn1,inactive: 6.51%
20,Nc1ccccc1C#Cc1ccccc1,active: 110%
21,O=C(NCc1nc2ccccc2[nH]1)C1=C[C@@H](c2coc3ccccc3c2=O)C[C@@H](OCCCCO)O1,active: 82.4%
22,CCCC#Cc1ccc2c(c1)[C@H]1[C@H](CCN1S(=O)(=O)c1cn(C)cn1)[C@H](CO)N2,active: 65%
23,Cc1ccc(NC(=O)COC(=O)CCn2c(C)csc2=O)c([N+](=O)[O-])c1,inactive: -0.453%
24,O=C(CN1C(=O)COc2ccc(Cl)cc21)Nc1ccc(N2CCOCC2)cc1,inconclusive: 43.8%

# A stretch of the results above:
row,SMILES,CPE inhibition
4,C[C@@H]1CN([C@H](C)CO)C(=O)c2cc(NS(=O)(=O)c3ccc(F)cc3)ccc2O[C@@H]1CN(C)Cc1ccc(C(=O)Nc2ccccc2N)cc1,inconclusive: 29.4%
5,COc1ccccc1Cn1c(C)nnc1-c1cnn(C)c1N,inconclusive: 30.4%
6,Cc1ccc(S(=O)(=O)Nc2ccc3c(c2)C(=O)N([C@H](C)CO)C[C@H](C)[C@@H](CN(C)S(=O)(=O)c2ccccc2)O3)cc1,active: 38.7%
7,CCC(=O)N(C)C[C@H]1Oc2ncc(-c3ccccc3OC)cc2C(=O)N([C@@H](C)CO)C[C@@H]1C,inconclusive: 20.3%
8,COC(=O)C1=C(C)N(Cc2ccccc2C(F)(F)F)C(=NCC2CC2)NC1CCc1ccccc1 (stereo unspecified),inconclusive: 25.3%
9,Cc1cccc(/C=N/NC(=O)c2cc(C)nc3ccccc23)n1,inactive: 10.3%
10,CCOC(=O)C1=CCN(S(=O)(=O)c2ccc(C)cc2)C1c1cccc(Cl)c1 (stereo unspecified),inconclusive: 32%
11,C/C=C/c1ccc([C@H]2[C@@H](CO)N(CC3CCCC3)C23CN(S(=O)(=O)CC)C3)cc1,active: 23.1%
12,O=C(c1ccncc1)N1CCCC(N2CCN(c3ccc(F)cc3)CC2)C1 (stereo unspecified),inconclusive: 62%
13,Cc1cc(Br)cn2c(Cc3cccc(F)c3)c(-c3ccc(C#N)cc3)nc12,inactive: 1.13%
14,C[C@@H]1CCCCO[C@H](CN(C)C(=O)Nc2cccc3ccccc23)[C@@H](C)CN([C@@H](C)CO)C(=O)c2cc(NC(=O)C3CCCCC3)ccc2O1,inactive: -2.11%
15,C[C@H](CO)N1C[C@H](C)[C@H](CN(C)C)Oc2ccc(NC(=O)Nc3cccc4ccccc34)cc2CC1=O,active: 35.3%
16,C[C@H]1CN([C@@H](C)CO)S(=O)(=O)c2ccc(Br)cc2O[C@H]1CN(C)C,inconclusive: 29.3%
17,C[C@H](CO)N1C[C@H](C)[C@@H](CN(C)C(=O)Nc2ccccc2)Oc2c(cccc2N(C)C)C1=O,inactive: 2.83% and inactive: 1.93%
18,COCC(=O)N(C)C[C@H]1Oc2cc(-c3ccc(C)cc3)ccc2S(=O)(=O)N([C@H](C)CO)C[C@@H]1C,inactive: 5.04%
19,C[C@@H]1CN([C@@H](C)CO)C(=O)c2cc(C3=CCCCC3)cnc2O[C@H]1CN(C)S(=O)(=O)c1cn(C)cn1,inactive: 6.51%
20,Nc1ccccc1C#Cc1ccccc1,active: 110%

# Carrying on:

row,SMILES,CPE inhibition
1,O=C(C[C@H]1CC[C@H]2[C@@H](COC[C@@H](O)CN2S(=O)(=O)c2cccc(F)c2)O1)NCc1ccncn1,inconclusive: 52.6%
2,COc1ccccc1C1CCN(Cc2cccc([N+](=O)[O-])c2)CC1,inactive: 8.19%
3,COc1cccc(CN2CCC3(CC2)CN(S(C)(=O)=O)[C@@H](CO)c2[nH]c4cc(OC)ccc4c23)c1,inconclusive: 25.2%
4,COc1ccc(NC(=S)N2CCN(C(=O)c3ccco3)CC2)cc1OC,inconclusive: 46.5%
5,C[C@@H]1CN([C@@H](C)CO)C(=O)c2cc(NC(=O)Nc3ccc(F)cc3)ccc2O[C@H]1CN(C)C(=O)Nc1ccccc1,inactive: 17.7%
6,CC(C)C(NC(=O)c1ccccc1F)C(=O)NCCCn1ccnc1 (stereo unspecified),inconclusive: 20.3%
7,CC1CCN(c2nc(/C=C/c3ccccc3)nc3ccccc23)CC1,inconclusive: 29.5%
8,CCC(=O)N(C)C[C@@H]1Oc2cc(-c3ccc(OC)cc3)ccc2S(=O)(=O)N([C@@H](C)CO)C[C@H]1C,inactive: -4.79%
9,Cc1ccc(S(=O)(=O)Nc2cccc3c2O[C@H](CN(C)S(=O)(=O)c2cccs2)[C@H](C)CN([C@@H](C)CO)C3=O)cc1,inactive: -5.36%
10,C/C=C/c1ccc([C@@H]2[C@@H](CO)N(C(C)=O)[C@H]2CN(CC(C)C)C(C)=O)cc1,inconclusive: 52.7%
11,O=C1CCC/C=C/C[C@@H](CC(=O)N(CCO)Cc2ccccc2)C(=O)NC[C@H](c2ccccc2)O1,active: 85.4%
12,CCCOc1cc2c(C#N)c(N3CCCC3)nc(N)c2c(N)n1,inconclusive: 79.8%
13,COc1ccc(N2CCOCC2)c(NC(=O)c2cc3ccccc3o2)c1,inconclusive: 30.3%
14,O=C(CCCOc1ccccc1)NN1C(=O)NC2(CCCCC2)C1=O,inconclusive: 26.5%
15,CCN(C[C@H]1N[C@@](CC)(C(=O)OC)[C@H]2C(=O)N(C)C(=O)[C@@H]12)S(=O)(=O)c1ccc(OC)cc1,active: 25.9%
16,Cc1nc2ccccc2c(=O)n1-c1ccc(NS(=O)(=O)c2ccccc2)cc1,active: 68.2%
17,COc1ccccc1C1CC(c2ccc(NS(C)(=O)=O)cc2)=NN1S(=O)(=O)c1ccccc1 (stereo unspecified),inconclusive: 36.1%
18,Cc1ccc(S(=O)(=O)N(C)C[C@H]2Oc3ccc(NC(=O)Cc4ccccc4)cc3CC(=O)N([C@H](C)CO)C[C@@H]2C)cc1,inconclusive: 22.2%
19,CC(C)NC(=O)N[C@H]1CC[C@H](CCNC(=O)C2CCCC2)O[C@@H]1CO,inconclusive: 27.4%
20,O=C(OCC(=O)C12CC3CC(CC(C3)C1)C2)c1ccc(CO)cc1,inconclusive: 27.5%
21,CCOC(=O)c1cc(C#N)c(N2CCN(C(=O)c3ccccc3)CC2)nc1C(F)(F)F,inconclusive: 22.9%
22,CCC(C)(C)NC(=O)C(OC(=O)c1ccco1)c1ccccc1F (stereo unspecified),inactive: 8.26%
23,CCC1COC(c2cccn2Cc2ccc(Cl)cc2)=N1 (stereo unspecified),inactive: -1.91%
24,CNC[C@@H]1Oc2ccc(NS(=O)(=O)c3ccc(F)cc3)cc2C(=O)N([C@H](C)CO)C[C@@H]1C,active: 53.5%

row,SMILES,CPE inhibition
1,CCOc1ccc(NC(=O)CN(C)C(=O)c2cc(S(=O)(=O)N(C)C)ccc2N2CCCC2)cc1OCC,inconclusive: 21.7%
2,C[C@H](CO)N1C[C@H](C)[C@H](CN(C)Cc2ccc(Cl)c(Cl)c2)Oc2ccc(NS(=O)(=O)c3ccc(Cl)cc3)cc2CC1=O,inactive: -4.23%
3,Cc1nn(-c2ccccc2)c(Cl)c1/C=N/Nc1nnc(C)c(=O)[nH]1,inconclusive: 45.9%
4,O=C(NCCS(=O)(=O)N1CCN(c2ccccc2F)CC1)c1c(F)cccc1F,inconclusive: 34.3%
5,C=CCn1c(=N)c(S(=O)(=O)c2ccc(C)c(C)c2)cc2c(=O)n3ccccc3nc21,inconclusive: 30.3%
6,C[C@@H]1CN([C@H](C)CO)C(=O)c2cccc(NC(=O)Nc3ccc(C(F)(F)F)cc3)c2O[C@H]1CN(C)C(=O)Nc1ccc2c(c1)OCO2,inconclusive: 48.6%
7,COc1ccc(NC(=O)Cn2cc(C#N)c3ccccc32)cc1,inactive: -4.33%
8,COc1ccccc1NC(=O)N1[C@@H]2CNC[C@H]1[C@@H]2c1ccc(-c2ccc(C#N)cc2)cc1,inactive: 4.34%
9,O=C(NCCN1CCCCC1)Nc1ccc(Br)cc1,inactive: 15.9%
10,CCC(C)[C@H](NS(=O)(=O)c1ccc(C)cc1)C(=O)N1CCC(C(=O)N2CCC(C(N)=O)CC2)CC1 (stereo partly specified),inconclusive: 20.8%
11,COc1ccccc1NC(=O)Nc1nc(C(N)CCc2ccccc2)cs1 (stereo unspecified),inconclusive: 37.8%
12,CC(C)NC(=O)N1CCCCN2[C@@H](CO)[C@@H](c3ccc(Br)cc3)[C@@H]2C1,active: 68.2%
13,C#CCOCCOCCOCCNc1nc(N2CCN(C(=O)CCCCCCCCCCNC(=O)Cn3cc(C[C@@H](C)O)nn3)CC2)nc(N2CCN(C(=O)CCCCCCCCCCNC(=O)[C@H](CCCCN)n3cc(CCCC(=O)O)nn3)CC2)n1,inconclusive: 24%
14,COc1cc(OC)cc(C(=O)NNC(=O)CCNC(=O)c2ccc(Br)cc2)c1,inconclusive: 31.9%
15,COc1ccccc1NC(=O)CC1C(=O)Nc2ccccc2N1C(=O)c1ccccc1 (stereo unspecified),inconclusive: 26.1%
16,OC[C@H]1O[C@H](OCc2ccccc2)[C@H](O[C@@H]2OC[C@@H](O)[C@H](O)[C@H]2O)[C@@H](O)[C@@H]1O,inconclusive: 62.7%
17,CCc1nnc(NC(=O)c2ccc(F)c(S(=O)(=O)N3CCCCC3)c2)s1,active: 68.6%
18,Cc1noc(C)c1S(=O)(=O)Nc1ccc2c(c1)C(=O)N([C@H](C)CO)C[C@@H](C)[C@@H](CN(C)C(=O)Cc1ccccc1)OCCCC[C@@H](C)O2,inconclusive: 20.8%
19,CCCCN(C)c1ccc([N+](=O)[O-])cc1,inconclusive: 81.8%
20,COc1cccc(C#Cc2cnc3c(c2)C(=O)N([C@H](C)CO)C[C@@H](C)[C@H](CN(C)C(=O)C2CCC2)O3)c1,active: 20.1%
21,O=C(c1ccc(F)cc1)N1CCCCN2[C@H](CO)[C@H](c3ccc(C#CC4(O)CCCC4)cc3)[C@H]2C1,inactive: -6.47%
22,COc1ccccc1NS(=O)(=O)c1cc(C(=O)Nc2ccc(S(=O)(=O)Nc3onc(C)c3C)cc2)ccc1C,inactive: -2%
23,O=C(Nc1ccccc1F)N1CC(=O)N2[C@H](CO)[C@H](c3ccc(C#Cc4ccccc4)cc3)[C@H]2C1,inconclusive: 29.4%
